The values that follow come from article PMC10318467.

These are yes or no findings as the source states them, for the method shown. Binding seen in cells or lysates may run through a third protein. A result given as binding can be weak or reduced; the word gives no strength. Where a sequence is shown, tags or fusion partners need not be part of it.

In the assay the target is Haus6 with an N-terminal HRV3C-cleavable ZZ-tag (X. laevis). The experiment in a line: co-purification (IgG Sepharose by ZZ-Haus6), Western blot; subunits co-expressed in Sf9; complex held by ZZ-Haus6 on IgG Sepharose, eluted by HRV3C, then Superose 6 or Ni2+ agarose; Strep-tagged Haus3 and Haus8 found by α-Strep blot.

B1: Strep-GFP-tagged Haus3 (protein, UniProt Q6DCY9 1-597)
chain: MSGGDRFVQTLQKLNYPKGAQLDGEDFDWLFEAVDLKPFLDWFCSAASEQNVVPDEKLQAFNTLKESGKPVLDEKALDEVLKTFSISKVPAIEEVAIEKLEEEVKALQKQKNLHIRRRNKLQMVESGNRQMCLKSKDKEEETGRAFQEVLHLLRVTNKKLNHELQSIVNGVQTLMSFFSTPETACELSSQPIFLSQLLLDKYLSLEEQSTAALTSFTKEHFFEGMSKFVEGSDENFQLVQLNVNSFGEDGTTEDKCKEMMRLQLAYICAKHKLIQMKAKSASLKVGLQWAENNASVVQDKASQKEENLKVRITSLKNETLQIENHTNSISNEKLPGLVRDNAQLLNMPIVKGDYDLQMAHQTSCSSRQDLVCDHLMKQKASFELLQLGYELELRKHRDVYRELGSIVQELKESGDKLEERLTMLSDVNLLSASKPRSNIDSKDLTSHRLYQLLDGDNTQKLFRTYDGLESVAQKLSQDIASMRDQLEVSEQEHSLLLSKLDSHLKELRDFMYPEGNTLMLTTPELSGEFHQLGSQLEKLNHITVEILGDLQLKRKMLESNKLQQIEKQLYVYFFQNEEQLKSIVGKLEAQTGGGSSA
Consider B1, for which the binding result is “binds”.

B2: Strep-GFP-tagged Haus8 (subunit of full-length augmin and of T-II) (protein, UniProt Q0IHJ3 1-367)
chain: MSEAGVAPIEDGSQNSSGGSSGDAALKKSKGGAKVVKSRYMQIGRSKVSKNSLANTTVCSGGKVPERGSGGTPTRRSLAPHKAKITAAVPLPALDGSIFTKEDLQSTLLDGHRIARPDLDLSVINDRTLQKITPRPVVTSEQKKPKRDTTPVNLVPEDMVEMIESQTLLLTYLTIKMQKNLFRLEEKAERNLLLVNDQKDQLQETIHMMKRDLTLLQREERLRDLIEKQDEVLTPVVTSKDPFKDNYTTFATALDSTRHQLAIKNIHITGNRHRYLEELQKHLAITKSLLEEIMPSHASENAESFDTIKDLENIVLKTDEELARSFRQILDLSFKVNKEISLQSQKAVEETCESALVRQWYFDGSLP
Take B2: the binding result was “binds”.
